Where a name gives a salt, the structure may show the parent alone. ± gives the standard deviation of the averaged measurements. This is one part of the list. Repeats in this data set agree poorly, so a single value says little.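 Cells were counted by imaging DAPI-stained nuclei, and cells lacking phalloidin-stained cytoplasm were excluded as dead. Each well's count was divided by the median count of the vehicle wells on the same plate, and values were averaged over two replicate plates.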
Tested on: OVCAR8
Experiment: cell count relative to DMSO vehicle (fold change); higher = more surviving senescent cells (less killing)
Settings: senescence inducer: cisplatin 10 µM 48 h, then 6 d recovery (CP senescent), exposure time 24 h

Q: Which cell count (compound dose 1 µM) does the source give for CC(=O)N1N=C(c2ccc(N)cc2)c2cc3c(cc2C[C@H]1C)OCO3 [Talampanel] here?
A: The cell count was 0.904 ± 0.2.

Q: And the cell count (compound dose 5 µM)?
A: Its cell count is 0.733 ± 0.021.

Q: With COc1ccc2c(c1)/C(=C/c1cnc[nH]1)C(=O)N2 as the molecule, how does the cell count (compound dose 1 µM) read?
A: The cell count was 1.47 ± 0.35.

Q: And the cell count (compound dose 5 µM)?
A: Its cell count is 1.5 ± 0.1.

Q: What does the source list for COc1ccc(C[C@H]2NC[C@H](O)[C@H]2OC(C)=O)cc1 [Anisomycin]?
A: cell count (compound dose 1 µM): 0.616 ± 0.0057; cell count (compound dose 5 µM): 0.395 ± 0.0099

Q: How did the cell count (compound dose 1 µM) turn out when C[C@@H]1CC[C@H]2[C@@H](C)C(=O)O[C@@H]3O[C@@]4(C)CC[C@@H]1[C@]32OO4 [Artemisinin] was run?
A: The cell count was 0.808 ± 0.13.

Q: What about the cell count (compound dose 5 µM) of the same molecule?
A: The cell count was 0.571 ± 0.33.

Q: Which cell count (compound dose 1 µM) does the source give for C=C(C)[C@H]1Cc2c(ccc3c2O[C@@H]2COc4cc(OC)c(OC)cc4[C@@H]2C3=O)O1 [Rotenone] here?
A: Its cell count is 0.808 ± 0.078.

Q: And the cell count (compound dose 5 µM)?
A: Its cell count is 0.52 ± 0.064.

Q: What does the source list for COc1ccc([C@@]23Oc4cc(OC)cc(OC)c4[C@]2(O)[C@H](O)[C@H](C(N)=O)[C@H]3c2ccccc2)cc1 [Didesmethylrocaglamide]?
A: cell count (compound dose 1 µM): 0.519 ± 0.052; cell count (compound dose 5 µM): 0.465 ± 0.012

Q: O=C1C=C2C(=CCOC2O)O1 (centres undefined) was tested. Which cell count (compound dose 1 µM) did it give?
A: Its cell count is 0.472 ± 0.27.

Q: What about the cell count (compound dose 5 µM) of the same molecule?
A: Its cell count is 0.681 ± 0.6.

Q: How did the cell count (compound dose 1 µM) turn out when CNc1ccc2oc(C[C@H]3O[C@@]4(CC[C@H]3C)O[C@H]([C@H](C)C(=O)c3ccc[nH]3)[C@H](C)C[C@H]4C)nc2c1C(=O)O [Calcimycin] was run?
A: The cell count was 1.03 ± 0.03.

Q: And the cell count (compound dose 5 µM)?
A: The cell count was 0.845 ± 0.06.

Q: With COc1ccc2c(c[n+](C)c3c4cc5c(cc4ccc23)OCO5)c1OC [Chelerythrine (chloride)] as the molecule, how does the cell count (compound dose 1 µM) read?
A: Its cell count is 1.24 ± 0.014.

Q: What about the cell count (compound dose 5 µM) of the same molecule?
A: The cell count was 0.518 ± 0.083.

Q: Which cell count (compound dose 1 µM) does the source give for O=C1CCC[C@@H]2[C@H]3CCCN4CCC[C@H](CN12)[C@@H]34 [Sophoridine] here?
A: Its cell count is 0.416 ± 0.15.

Q: And the cell count (compound dose 5 µM)?
A: Its cell count is 0.187 ± 0.16.

Q: With COc1ccc(O)c(C(C)(C)C)c1.COc1ccc(O)cc1C(C)(C)C as the molecule, how does the cell count (compound dose 1 µM) read?
A: The cell count was 1.3 ± 0.037.

Q: And the cell count (compound dose 5 µM)?
A: Its cell count is 1.3 ± 0.079.

Q: What does the source list for O=C1c2ccccc2C(=O)c2c1cccc2-c1cnn(C2CCNCC2)c1 [PDK4-IN-1 (hydrochloride)]?
A: cell count (compound dose 1 µM): 1.12 ± 0.016; cell count (compound dose 5 µM): 0.928 ± 0.1

Q: Which results are given for C[C@]12CC[C@H](O)C[C@@]1(O)CC[C@@H]1[C@@H]2CC[C@]2(C)[C@@H](c3ccc(=O)oc3)[C@@H](O)[C@H]3O[C@]132 [Desacetylcinobufotalin]?
A: cell count (compound dose 1 µM): 0.886 ± 0.0028; cell count (compound dose 5 µM): 0.185 ± 0.16

Q: Which cell count (compound dose 1 µM) does the source give for CC(C)=CCC[C@H](C(=O)O)[C@H]1CC[C@]2(C)C3=C(CC[C@@]12C)[C@@]1(C)CCC(=O)C(C)(C)[C@H]1CC3 [β-Elemonic acid] here?
A: The cell count was 0.96 ± 0.12.

Q: And the cell count (compound dose 5 µM)?
A: Its cell count is 1.17 ± 0.11.

Q: With C1=C2CCCN[C@H]2[C@@H]2C[C@H]1[C@H]1CCCCN1C2 [Aloperine] as the molecule, how does the cell count (compound dose 1 µM) read?
A: The cell count was 0.747 ± 0.13.

Q: And the cell count (compound dose 5 µM)?
A: The cell count was 0.776 ± 0.13.

Q: Which results are given for COc1cc([C@@H]2c3cc4c(cc3[C@H](O)[C@H]3COC(=O)[C@@H]23)OCO4)cc(OC)c1OC [Picropodophyllin]?
A: cell count (compound dose 1 µM): 0.839 ± 0.2; cell count (compound dose 5 µM): 0.576 ± 0.16

Q: For O=Cc1cn(Cc2ccc(Cl)cc2)c2ccccc12 [Oncrasin-1], which cell count (compound dose 1 µM) is on record?
A: Its cell count is 1.15 ± 0.086.

Q: What about the cell count (compound dose 5 µM) of the same molecule?
A: Its cell count is 0.983 ± 0.15.

Q: With CC1=C(O)C(=O)C=C2C1=CC=C1[C@@]2(C)CC[C@@]2(C)[C@@H]3C[C@](C)(C(=O)O)CC[C@]3(C)CC[C@]12C [Tripterin] as the molecule, how does the cell count (compound dose 1 µM) read?
A: The cell count was 0.239 ± 0.037.

Q: And the cell count (compound dose 5 µM)?
A: Its cell count is 0.016 ± 0.0028.

Q: With COc1cc(-n2c(=S)[nH]c3ccccc3c2=O)c(Cl)cc1Cl [Mdivi-1] as the molecule, how does the cell count (compound dose 1 µM) read?
A: Its cell count is 1.003 ± 0.0042.

Q: And the cell count (compound dose 5 µM)?
A: Its cell count is 0.439 ± 0.3.

Q: Which cell count (compound dose 1 µM) does the source give for CC(C)=CCC[C@]1(C)C=Cc2c(O)c3c(c(CC=C(C)C)c2O1)O[C@]12C(=C[C@@H]4C[C@H]1C(C)(C)O[C@@]2(C/C=C(/C)C(=O)O)C4=O)C3=O [Gambogic Acid] here?
A: The cell count was 0.148 ± 0.044.

Q: And the cell count (compound dose 5 µM)?
A: The cell count was 0.026 ± 0.0014.

Q: Which cell count (compound dose 1 µM) does the source give for N#Cc1nn(-c2c(Cl)cc(C(F)(F)F)cc2Cl)c(N)c1[S+]([O-])C(F)(F)F (centres undefined) [Fipronil] here?
A: The cell count was 0.868 ± 0.033.

Q: What about the cell count (compound dose 5 µM) of the same molecule?
A: The cell count was 1.02 ± 0.2.

Q: What does the source list for CC[C@@]1(O)C(=O)OCc2c1cc1n(c2=O)Cc2cc3ccccc3nc2-1 [Camptothecin]?
A: cell count (compound dose 1 µM): 0.534 ± 0.018; cell count (compound dose 5 µM): 0.364 ± 0.076

Q: Which cell count (compound dose 1 µM) does the source give for O=c1ccc2ccc3occc3c2o1 [Angelicin] here?
A: The cell count was 1.14 ± 0.038.

Q: And the cell count (compound dose 5 µM)?
A: Its cell count is 0.998 ± 0.013.

Q: For C/C=C(/C)C(=O)O[C@H]1[C@@H]2[C@H](C)C(=O)O[C@@H]2C[C@@H](C)[C@@H]2C=CC(=O)[C@]21C [Brevilin A], which cell count (compound dose 1 µM) is on record?
A: The cell count was 0.452 ± 0.024.

Q: What about the cell count (compound dose 5 µM) of the same molecule?
A: Its cell count is 0.215 ± 0.018.

Q: With CC(C)[C@@H]1NC(=O)[C@H](C)OC(=O)[C@@H](C(C)C)NC(=O)[C@@H](C(C)C)OC(=O)[C@H](C(C)C)NC(=O)[C@H](C)OC(=O)[C@@H](C(C)C)NC(=O)[C@@H](C(C)C)OC(=O)[C@H](C(C)C)NC(=O)[C@H](C)OC(=O)[C@@H](C(C)C)NC(=O)[C@@H](C(C)C)OC1=O [Valinomycin] as the molecule, how does the cell count (compound dose 1 µM) read?
A: Its cell count is 0.978 ± 0.073.

Q: What about the cell count (compound dose 5 µM) of the same molecule?
A: Its cell count is 1.07 ± 0.027.

Q: O=C(Nc1ccncc1)C(=O)c1cn(Cc2ccc(Cl)cc2)c2ccccc12 [Indibulin] was tested. Which cell count (compound dose 1 µM) did it give?
A: The cell count was 0.862 ± 0.14.

Q: And the cell count (compound dose 5 µM)?
A: Its cell count is 0.936 ± 0.023.

Q: Which results are given for C=C1[C@H](OC(=O)c2ccccc2)C[C@H]2[C@@H](/C=C(\C)C(=O)[C@@]3(OC(C)=O)C[C@H](C)[C@H](OC(=O)c4ccccc4)[C@@H]3[C@H]1OC(C)=O)C2(C)C [Euphorbia Factor L2]?
A: cell count (compound dose 1 µM): 1.13 ± 0.043; cell count (compound dose 5 µM): 0.966 ± 0.11

Q: What does the source list for CC(=O)OC(C)(C)/C=C/C(=O)[C@](C)(O)[C@H]1[C@H](O)C[C@@]2(C)[C@@H]3CC=C4[C@H](C[C@H](O)C(=O)C4(C)C)[C@]3(C)C(=O)C[C@]12C [Cucurbitacin B]?
A: cell count (compound dose 1 µM): 0; cell count (compound dose 5 µM): 0.011 ± 0.0071

Q: For COc1ccccc1-n1c(/C=C/c2ccc(O)c(O)c2)nc2ccccc2c1=O, which cell count (compound dose 1 µM) is on record?
A: The cell count was 0.715 ± 0.17.

Q: What about the cell count (compound dose 5 µM) of the same molecule?
A: Its cell count is 0.862 ± 0.071.

Q: With C/C(=C\c1csc(C)n1)[C@@H]1C[C@@H]2O[C@]2(C)CCC[C@H](C)[C@H](O)[C@@H](C)C(=O)C(C)(C)[C@@H](O)CC(=O)O1 [Epothilone B] as the molecule, how does the cell count (compound dose 1 µM) read?
A: The cell count was 0.922 ± 0.052.

Q: And the cell count (compound dose 5 µM)?
A: Its cell count is 1.03 ± 0.29.

Q: Which results are given for C=C[C@H]1CN2CC[C@H]1C[C@@H]2[C@@H](O)c1ccnc2ccccc12 [Cinchonine]?
A: cell count (compound dose 1 µM): 1.19 ± 0.013; cell count (compound dose 5 µM): 0.976 ± 0.14

Q: With COCC1(CO)C(=O)C2CCN1CC2 (centres undefined) [Eprenetapopt] as the molecule, how does the cell count (compound dose 1 µM) read?
A: Its cell count is 1.17 ± 0.21.

Q: And the cell count (compound dose 5 µM)?
A: The cell count was 1.15 ± 0.097.

— the supplement of paper PMC12462457
